From article PMC9271913
Results are given in words; binding and its absence hold for the method and conditions named. Binding seen in cells or lysates may run through a third protein. A yes stands for co-enrichment or nearness to the bait. Other partners may have been found.

T1: Retention in endoplasmic reticulum 1 (Rer1), mouse (mouse (endogenous in brain)) (UniProt Q9CQU3)
T1 sequence: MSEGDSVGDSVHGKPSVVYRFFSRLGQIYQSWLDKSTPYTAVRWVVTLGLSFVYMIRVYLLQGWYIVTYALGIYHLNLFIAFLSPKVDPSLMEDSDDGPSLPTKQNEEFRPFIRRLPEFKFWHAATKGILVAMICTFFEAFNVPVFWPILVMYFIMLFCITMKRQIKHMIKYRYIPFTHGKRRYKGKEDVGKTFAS

B1: Vacuolar protein sorting-associated protein 51 homolog (protein, UniProt Q3UVL4 1-782)
chain: MAAAAAVGPGLGSGPGDSPEGPEADAPERRRKAHGMLKLYYGLSEGEVAGHPAGPDPLDPTDLNGAHFDPEVYLDKLRRECPLAQLMDSETDMVRQIRALDSDMQTLVYENYNKFISATDTIRKMKNDFRKMEDEMDRLATNMAVITNFSARISATLQDRHERITKLAGVHALLRKLQFLFELPSRLTKCVELGAYGQAVRYQGRARAVLQQYQHLPSFRAIQDDCQVITARLAQQLRQRFREGCSGAPEQAECVELLLALGEPAEELCEEFLAHARGRLEEELSSLEAELGPSPPAPDVLEFTDRGGNGFVGGLCQVAAAYQELFAAQGPAGAEKLAAFAQELGGRYFALVERRLAQEQGGSDNSLLVRALDRFHRRLRAPGALLAAAGLSESATEIVERVARERLSHHLQGLKAAFLSSLTDVRQALAAPRLAGKEGPSLAELLANVASSILSHIKTSLASVHLFTAKEVSFSNKPYFRGEFCSQGVREGLIVGFIRSMCQTAQSFCDSPGEKGGATPPALLLLLSRLCLDYETATISYILTLTDEQFLVQDQSPVTPVSTLCAEARETARRLLTHYVKVQGLVISQMLRKSVETRDWLSTLEPRNVRAVMKRVVEDTTAIDVQVGLLYEEGVRKAQSSDSSKRTFSVYSSSRQQGRYAPSYTPSAPMDTNLLSNIQKLFSERIDVFSPVEFNKVSVLTGIIKISLKTLLECVRLRTFGRFGLQQVQVDCHFLQLYLWRFVADEELVHLLLDEVVASAALRCPDPVPMEPSVVEVICERG
B2: Tripartite motif-containing protein 2 isoform X2 (protein, UniProt Q9ESN6 1-744)
chain: MASEGASIPSPVVRQIDKQFLICSICLERYKNPKVLPCLHTFCERCLQNYIPAHSLTLSCPVCRQTSILPEKGVAALQNNFFITNLMDVLQRTPGSNGEDSSILETVTAVAAGKPLSCPNHDGNVMEFYCQSCETAMCRECTEGEHAEHPTVPLKDVVEQHKASLQVQLDAVNKRLPEIDSALQFISEIIHQLTNQKASIVDDIHSTFDELQKTLNVRKSVLLMELEVNYGLKHKVLQSQLDTLLQGQESIKSCSNFTAQALNHGTETEVLLVKKQMSEKLNELADQDFPLHPRENDQLDFIVETEGLKKSIHNLGTILTTNAVASETVATGEGLRQTIIGQPMSVTITTKDKDGELCKTGNAYLTAELSTPDGSVADGEILDNKNGTYEFLYTVQKEGDFTLSLRLYDQHIRGSPFKLKVIRSADVSPTTEGVKRRVKSPGSGHVKQKAVKRPASMYSTGKRKENPIEDDLIFRVGTKGRNKGEFTNLQGVAASTSGKILIADSNNQCVQIFSNDGQFKSRFGIRGRSPGQLQRPTGVAVHPSGDIIIADYDNKWVSIFSNDGKFKTKIGSGKLMGPKGVSVDRNGHIIVVDNKACCVFIFQPNGKIVTRFGSRGNGDRQFAGPHFAAVNSNNEIIITDFHNHSVKVFNQEGEFMLKFGSNGEGNGQFNAPTGVAVDSNGNIIVADWGNSRIQVFDGSGSFLSYINTSADPLYGPQGLALTSDGHVVVADSGNHCFKVYRYLQ
B3: Cytochrome b-c1 complex subunit 2, mitochondrial (protein, UniProt Q9DB77 15-453)
chain: SLKVAPKVKTSAAPGGVPLQPQDLEFTKLPNGLVIASLENYAPLSRIGLFVKAGSRYEDSNNLGTSHLLRLASSLTTKGASSFKITRGIEAVGGKLSVTATRENMAYTVEGIRSDIEILMEFLLNVTTAPEFRRWEVAALRSQLKIDKAVAFQNSQTRIIENLHDVAYKNALANPLYCPDYRMGKITSEELHYFVQNHFTSARMALVGLGVSHSVLKQVAEQFLNMRGGLGLAGAKAKYRGGEIREQNGDNLVHAAIVAESAAIGNAEANAFSVLQHLLGAGPHIKRGNNTTSLLSQSVAKGSHQPFDVSAFNASYSDSGLFGIYTISQAAAAGEVINAAYNQVKAVAQGNLSSADVQAAKNKLKAGYLMSVETSEGFLSEIGSQALAAGSYMPPSTVLQQIDSVADADVVKAAKKFVSGKKSMAASGNLGHTPFLDEL

Target: T1, Retention in endoplasmic reticulum 1 (Rer1), mouse (mouse (endogenous in brain))
Assay: affinity purification with mass spectrometry; anti-RER1 immunoprecipitation of hippocampus lysates (gentle RIPA lysis buffer) of PTZ-induced Nedd4-2+/- and wild-type mice, LC-MS/MS; IgG-precipitated proteins subtracted; proteins present in all four replicates of a group defined as positive

Row | binding | Binder
1 | binds | B1
2 | binds | B2
3 | binds | B3
